{
  "source": "the supplement of paper PMC8728848",
  "assay_in_all_cases": "glycan array binding signal (z-score within array); higher = stronger binding",
  "details_in_all_cases": "glycan notation: IUPAC condensed, linker removed",
  "key": {"[1]": {"biological_target": "GlcNAc(b1-2)Gal(b1-3)GalNAc", "outline": "(§1)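 Arrays were curated from the Consortium for Functional Glycomics database, 3228 in total, and kept only where the protein sequence was available. Binding is expressed as a within-array Z-score. This score was averaged across arrays of the same protein sequence at different concentrations or buffers and across linkers, and negative values can be read as non-binding.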"}, "[2]": {"biological_target": "GlcNAc(b1-2)Man(a1-3)[GlcNAc(b1-2)Man(a1-6)]Man(b1-4)GlcNAc(b1-4)GlcNAc", "outline": "as §1"}, "[3]": {"biological_target": "GlcNAc(b1-2)Man(a1-3)[GlcNAc(b1-2)Man(a1-6)]Man(b1-4)GlcNAc(b1-4)[Fuc(a1-6)]GlcNAc", "outline": "as §1"}, "[4]": {"biological_target": "GlcNAc(b1-2)Man(a1-3)[GlcNAc(b1-4)][GlcNAc(b1-2)Man(a1-6)]Man(b1-4)GlcNAc(b1-4)GlcNAc", "outline": "as §1"}, "[5]": {"biological_target": "GlcNAc(b1-2)Man(a1-3)[GlcNAc(b1-4)][GlcNAc(b1-2)Man(a1-6)]Man(b1-4)GlcNAc(b1-4)[Fuc(a1-6)]GlcNAc", "outline": "as §1"}, "[6]": {"biological_target": "GlcNAc(b1-2)[GlcNAc(b1-4)]Man(a1-3)[GlcNAc(b1-2)Man(a1-6)]Man(b1-4)GlcNAc(b1-4)GlcNAc", "outline": "as §1"}, "[7]": {"biological_target": "GlcNAc(b1-2)[GlcNAc(b1-4)]Man(a1-3)[GlcNAc(b1-4)][GlcNAc(b1-2)Man(a1-6)]Man(b1-4)GlcNAc(b1-4)GlcNAc", "outline": "as §1"}, "[8]": {"biological_target": "GlcNAc(b1-2)[GlcNAc(b1-4)]Man(a1-3)[GlcNAc(b1-4)][GlcNAc(b1-2)[GlcNAc(b1-6)]Man(a1-6)]Man(b1-4)GlcNAc(b1-4)GlcNAc", "outline": "as §1"}, "[9]": {"biological_target": "GlcNAc(b1-2)[GlcNAc(b1-4)]Man(a1-3)[GlcNAc(b1-4)][GlcNAc(b1-2)[GlcNAc(b1-6)]Man(a1-6)]Man(b1-4)GlcNAc(b1-4)[Fuc(a1-6)]GlcNAc", "outline": "as §1"}, "[10]": {"biological_target": "GlcNAc(b1-2)[GlcNAc(b1-6)]Man(a1-6)[GlcNAc(b1-2)Man(a1-3)]Man(b1-4)GlcNAc(b1-4)GlcNAc", "outline": "as §1"}, "[11]": {"biological_target": "GlcNAc(b1-2)[GlcNAc(b1-6)]Man(a1-6)[GlcNAc(b1-2)Man(a1-3)]Man(b1-4)GlcNAc(b1-4)[Fuc(a1-6)]GlcNAc", "outline": "as §1"}, "[12]": {"biological_target": "GlcNAc(b1-2)[GlcNAc(b1-6)]Man(a1-6)[GlcNAc(b1-4)][GlcNAc(b1-2)Man(a1-3)]Man(b1-4)GlcNAc(b1-4)GlcNAc", "outline": "as §1"}, "GlcNAc(b1-3)Fuc": {"biological_target": "GlcNAc(b1-3)Fuc", "outline": "as §1"}, "GlcNAc(b1-3)Gal": {"biological_target": "GlcNAc(b1-3)Gal", "outline": "as §1"}, "[13]": {"biological_target": "GlcNAc(b1-3)Gal(b1-3)GalNAc", "outline": "as §1"}, "GlcNAc(b1-3)Gal(b1-4)Glc": {"biological_target": "GlcNAc(b1-3)Gal(b1-4)Glc", "outline": "as §1"}, "[14]": {"biological_target": "GlcNAc(b1-3)Gal(b1-4)GlcNAc", "outline": "as §1"}, "[15]": {"biological_target": "GlcNAc(b1-3)Gal(b1-4)GlcNAc(b1-2)Man(a1-3)[GlcNAc(b1-3)Gal(b1-4)GlcNAc(b1-2)Man(a1-6)]Man(b1-4)GlcNAc(b1-4)GlcNAc", "outline": "as §1"}, "[16]": {"biological_target": "GlcNAc(b1-3)Gal(b1-4)GlcNAc(b1-2)Man(a1-3)[GlcNAc(b1-3)Gal(b1-4)GlcNAc(b1-2)Man(a1-6)]Man(b1-4)GlcNAc(b1-4)[Fuc(a1-6)]GlcNAc", "outline": "as §1"}, "[17]": {"biological_target": "GlcNAc(b1-3)Gal(b1-4)GlcNAc(b1-2)[GlcNAc(b1-3)Gal(b1-4)GlcNAc(b1-6)]Man(a1-6)[GlcNAc(b1-3)Gal(b1-4)GlcNAc(b1-2)Man(a1-3)]Man(b1-4)GlcNAc(b1-4)GlcNAc", "outline": "as §1"}, "[18]": {"biological_target": "GlcNAc(b1-3)Gal(b1-4)GlcNAc(b1-3)Gal(b1-4)GlcNAc", "outline": "as §1"}, "[19]": {"biological_target": "GlcNAc(b1-3)Gal(b1-4)GlcNAc(b1-3)Gal(b1-4)GlcNAc(b1-2)Man(a1-3)[GlcNAc(b1-3)Gal(b1-4)GlcNAc(b1-3)Gal(b1-4)GlcNAc(b1-2)Man(a1-6)]Man(b1-4)GlcNAc(b1-4)GlcNAc", "outline": "as §1"}, "[20]": {"biological_target": "GlcNAc(b1-3)Gal(b1-4)GlcNAc(b1-3)Gal(b1-4)GlcNAc(b1-2)Man(a1-3)[GlcNAc(b1-3)Gal(b1-4)GlcNAc(b1-3)Gal(b1-4)GlcNAc(b1-2)Man(a1-6)]Man(b1-4)GlcNAc(b1-4)[Fuc(a1-6)]GlcNAc", "outline": "as §1"}, "[21]": {"biological_target": "GlcNAc(b1-3)Gal(b1-4)GlcNAc(b1-3)Gal(b1-4)GlcNAc(b1-2)[GlcNAc(b1-3)Gal(b1-4)GlcNAc(b1-3)Gal(b1-4)GlcNAc(b1-6)]Man(a1-6)[GlcNAc(b1-3)Gal(b1-4)GlcNAc(b1-3)Gal(b1-4)GlcNAc(b1-2)Man(a1-3)]Man(b1-4)GlcNAc(b1-4)[Fuc(a1-6)]GlcNAc", "outline": "as §1"}, "[22]": {"biological_target": "GlcNAc(b1-3)Gal(b1-4)GlcNAc(b1-3)Gal(b1-4)GlcNAc(b1-3)Gal(b1-4)GlcNAc(b1-2)Man(a1-3)[GlcNAc(b1-3)Gal(b1-4)GlcNAc(b1-3)Gal(b1-4)GlcNAc(b1-3)Gal(b1-4)GlcNAc(b1-2)Man(a1-6)]Man(b1-4)GlcNAc(b1-4)GlcNAc", "outline": "as §1"}, "[23]": {"biological_target": "GlcNAc(b1-3)Gal(b1-4)GlcNAc(b1-3)Gal(b1-4)GlcNAc(b1-3)Gal(b1-4)GlcNAc(b1-2)Man(a1-3)[GlcNAc(b1-3)Gal(b1-4)GlcNAc(b1-3)Gal(b1-4)GlcNAc(b1-3)Gal(b1-4)GlcNAc(b1-2)Man(a1-6)]Man(b1-4)GlcNAc(b1-4)[Fuc(a1-6)]GlcNAc", "outline": "as §1"}, "[24]": {"biological_target": "GlcNAc(b1-3)Gal(b1-4)GlcNAc(b1-3)Gal(b1-4)GlcNAc(b1-3)Gal(b1-4)GlcNAc(b1-2)[GlcNAc(b1-3)Gal(b1-4)GlcNAc(b1-3)Gal(b1-4)GlcNAc(b1-3)Gal(b1-4)GlcNAc(b1-6)]Man(a1-6)[GlcNAc(b1-3)Gal(b1-4)GlcNAc(b1-3)Gal(b1-4)GlcNAc(b1-3)Gal(b1-4)GlcNAc(b1-2)Man(a1-3)]Man(b1-4)GlcNAc(b1-4)[Fuc(a1-6)]GlcNAc", "outline": "as §1"}, "[25]": {"biological_target": "GlcNAc(b1-3)Gal(b1-4)GlcNAc(b1-3)Gal(b1-4)GlcNAc(b1-3)Gal(b1-4)GlcNAc(b1-3)Gal(b1-4)GlcNAc(b1-2)Man(a1-3)[GlcNAc(b1-3)Gal(b1-4)GlcNAc(b1-3)Gal(b1-4)GlcNAc(b1-3)Gal(b1-4)GlcNAc(b1-3)Gal(b1-4)GlcNAc(b1-2)Man(a1-6)]Man(b1-4)GlcNAc(b1-4)GlcNAc", "outline": "as §1"}, "[26]": {"biological_target": "GlcNAc(b1-3)Gal(b1-4)GlcNAc(b1-3)Gal(b1-4)GlcNAc(b1-3)Gal(b1-4)GlcNAc(b1-3)Gal(b1-4)GlcNAc(b1-2)Man(a1-3)[GlcNAc(b1-3)Gal(b1-4)GlcNAc(b1-3)Gal(b1-4)GlcNAc(b1-3)Gal(b1-4)GlcNAc(b1-3)Gal(b1-4)GlcNAc(b1-2)Man(a1-6)]Man(b1-4)GlcNAc(b1-4)[Fuc(a1-6)]GlcNAc", "outline": "as §1"}, "[27]": {"biological_target": "GlcNAc(b1-3)Gal(b1-4)GlcNAc(b1-3)Gal(b1-4)GlcNAc(b1-3)Gal(b1-4)GlcNAc(b1-3)Gal(b1-4)GlcNAc(b1-2)[GlcNAc(b1-3)Gal(b1-4)GlcNAc(b1-3)Gal(b1-4)GlcNAc(b1-3)Gal(b1-4)GlcNAc(b1-3)Gal(b1-4)GlcNAc(b1-6)]Man(a1-6)[GlcNAc(b1-3)Gal(b1-4)GlcNAc(b1-3)Gal(b1-4)GlcNAc(b1-3)Gal(b1-4)GlcNAc(b1-3)Gal(b1-4)GlcNAc(b1-2)Man(a1-3)]Man(b1-4)GlcNAc(b1-4)[Fuc(a1-6)]GlcNAc", "outline": "as §1"}},
  "note": "The list shows a part of the results.",
  "data": [
    {"binder": "CD4 (Rattus norvegicus), P05540 (protein) MCRGFSFRHLLPLLLLQLSKLLVVTQGSTSITAYKSEGESAEFSFPLNLGEESLQGELRWKAEKAPSSQSWITFSLKNQKVSVQKSTSNPKFQLSETLPLTLQIPQVSLQFAGSGNLTLTLDRGILYQEVNLVVMKVTQPDSNTLTCEVMGPTSPKMRLILKQENQEARVSRQEKVIQVQAPEAGVWQCLLSEGEEVKMDSKIQVLSKGLNSGGGSGGGTGGGDLAPQMLRELQETNAALQDVRELLRQQVKEITFLKNTVMECDACGLDRNLPPLAPLGPHPETLVKVKDAEDQLGARVGYIELDLNSGKILESFRPEERFPMMSTFKVLLCGAVLSRIDAGQEQLGRRIHYSQNDLVEYSPVTEKHLTDGMTVRELCSAAITMSDNTAANLLLTTIGGPKELTAFLHNMGDHVTRLDRWEPELNEAIPNDERDTTMPVAMATTLRKLLTGELLTLASRQQLIDWMEADKVAGPLLRSALPAGWFIADKSGAGERGSRGIIAALGPDGKPSRIVVIYTTGSQATMDERNRQIAEIGASLIKHW", "values": [
      {"measurement": "glycan array binding signal (z-score)", "setting": "[1]", "value": -0.319},
      {"measurement": "glycan array binding signal (z-score)", "setting": "[2]", "value": 0.084},
      {"measurement": "glycan array binding signal (z-score)", "setting": "[3]", "value": 0.756},
      {"measurement": "glycan array binding signal (z-score)", "setting": "[4]", "value": -0.906},
      {"measurement": "glycan array binding signal (z-score)", "setting": "[5]", "value": 0.753},
      {"measurement": "glycan array binding signal (z-score)", "setting": "[6]", "value": 0.532},
      {"measurement": "glycan array binding signal (z-score)", "setting": "[7]", "value": -0.934},
      {"measurement": "glycan array binding signal (z-score)", "setting": "[8]", "value": -1.14},
      {"measurement": "glycan array binding signal (z-score)", "setting": "[9]", "value": -0.043},
      {"measurement": "glycan array binding signal (z-score)", "setting": "[10]", "value": -0.024},
      {"measurement": "glycan array binding signal (z-score)", "setting": "[11]", "value": -0.931},
      {"measurement": "glycan array binding signal (z-score)", "setting": "[12]", "value": -0.474},
      {"measurement": "glycan array binding signal (z-score)", "setting": "GlcNAc(b1-3)Fuc", "value": 0.655},
      {"measurement": "glycan array binding signal (z-score)", "setting": "GlcNAc(b1-3)Gal", "value": 0.336},
      {"measurement": "glycan array binding signal (z-score)", "setting": "[13]", "value": 1.01},
      {"measurement": "glycan array binding signal (z-score)", "setting": "GlcNAc(b1-3)Gal(b1-4)Glc", "value": -1.35},
      {"measurement": "glycan array binding signal (z-score)", "setting": "[14]", "value": -0.866},
      {"measurement": "glycan array binding signal (z-score)", "setting": "[15]", "value": 0.029},
      {"measurement": "glycan array binding signal (z-score)", "setting": "[16]", "value": -0.556},
      {"measurement": "glycan array binding signal (z-score)", "setting": "[17]", "value": 1.36},
      {"measurement": "glycan array binding signal (z-score)", "setting": "[18]", "value": -0.812},
      {"measurement": "glycan array binding signal (z-score)", "setting": "[19]", "value": 0.82},
      {"measurement": "glycan array binding signal (z-score)", "setting": "[20]", "value": 1.85},
      {"measurement": "glycan array binding signal (z-score)", "setting": "[21]", "value": -1.38},
      {"measurement": "glycan array binding signal (z-score)", "setting": "[22]", "value": -0.119},
      {"measurement": "glycan array binding signal (z-score)", "setting": "[23]", "value": -0.855},
      {"measurement": "glycan array binding signal (z-score)", "setting": "[24]", "value": -0.01},
      {"measurement": "glycan array binding signal (z-score)", "setting": "[25]", "value": 0.209},
      {"measurement": "glycan array binding signal (z-score)", "setting": "[26]", "value": -0.266},
      {"measurement": "glycan array binding signal (z-score)", "setting": "[27]", "value": 0.345}
    ]}
  ]
}
